Data published in patent US20040005636A1, “Method for obtaining the binding affinities of a peptide library to a protein” (priority 2002, published 2004).
These are yes or no findings as the source states them, for the method shown.

Biological target: T1, hTRβ-LBD (ligand binding domain of thyroid hormone receptor β) (human) (UniProt P10828)
T1 sequence (looked up): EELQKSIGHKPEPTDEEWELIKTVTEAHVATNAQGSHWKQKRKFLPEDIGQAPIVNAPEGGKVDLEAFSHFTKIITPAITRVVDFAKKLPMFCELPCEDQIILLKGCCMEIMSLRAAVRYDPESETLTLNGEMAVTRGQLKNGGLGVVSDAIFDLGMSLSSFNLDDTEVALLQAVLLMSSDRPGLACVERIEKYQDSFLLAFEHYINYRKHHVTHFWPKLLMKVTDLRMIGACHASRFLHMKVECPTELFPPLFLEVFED
Experiment: fluorescence polarization, fluorescein-labelled peptide 10 nM, hTRβ-LBD titrated, T3 present

CQAQQKSLLQQLLTE (5-iodoacetamidofluorescein coupled to the amino terminal cysteine) [SRC1-7 coregulator peptide]
binding: no binding (tested: assay limits; value not printed)
